According to publication doi:10.1101/2020.07.21.214296:
Results are given in words; binding and its absence hold for the method and conditions named. Binding seen in cells or lysates may run through a third protein. Some entries that bind do so weakly or less than the wild type.

Chains of the proteins cited; added tags and fusions are not shown.
UniProt Q9QX29: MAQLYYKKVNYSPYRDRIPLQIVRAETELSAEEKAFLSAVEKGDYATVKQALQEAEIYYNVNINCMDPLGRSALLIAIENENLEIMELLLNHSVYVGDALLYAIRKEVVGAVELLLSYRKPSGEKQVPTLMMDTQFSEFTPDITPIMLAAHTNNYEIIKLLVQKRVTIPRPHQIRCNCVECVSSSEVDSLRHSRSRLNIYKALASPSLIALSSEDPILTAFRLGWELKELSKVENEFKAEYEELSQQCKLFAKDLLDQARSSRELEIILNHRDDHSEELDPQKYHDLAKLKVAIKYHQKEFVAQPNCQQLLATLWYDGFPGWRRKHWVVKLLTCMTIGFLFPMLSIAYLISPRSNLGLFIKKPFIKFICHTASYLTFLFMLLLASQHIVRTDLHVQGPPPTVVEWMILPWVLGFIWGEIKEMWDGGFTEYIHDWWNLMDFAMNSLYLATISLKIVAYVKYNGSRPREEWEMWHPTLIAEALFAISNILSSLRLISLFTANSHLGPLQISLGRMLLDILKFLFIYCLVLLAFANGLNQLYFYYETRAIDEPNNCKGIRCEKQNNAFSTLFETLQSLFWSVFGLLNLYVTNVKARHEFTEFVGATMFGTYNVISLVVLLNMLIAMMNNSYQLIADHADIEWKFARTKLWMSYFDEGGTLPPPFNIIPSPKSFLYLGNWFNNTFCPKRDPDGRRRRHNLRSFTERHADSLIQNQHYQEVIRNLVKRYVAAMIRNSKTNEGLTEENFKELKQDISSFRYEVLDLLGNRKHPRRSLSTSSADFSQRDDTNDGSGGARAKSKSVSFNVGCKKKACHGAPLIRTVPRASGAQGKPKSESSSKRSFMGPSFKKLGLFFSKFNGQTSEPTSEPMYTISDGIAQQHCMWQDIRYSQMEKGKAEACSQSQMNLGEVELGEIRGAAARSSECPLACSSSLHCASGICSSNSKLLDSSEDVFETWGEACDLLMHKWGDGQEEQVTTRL
UniProt O88427: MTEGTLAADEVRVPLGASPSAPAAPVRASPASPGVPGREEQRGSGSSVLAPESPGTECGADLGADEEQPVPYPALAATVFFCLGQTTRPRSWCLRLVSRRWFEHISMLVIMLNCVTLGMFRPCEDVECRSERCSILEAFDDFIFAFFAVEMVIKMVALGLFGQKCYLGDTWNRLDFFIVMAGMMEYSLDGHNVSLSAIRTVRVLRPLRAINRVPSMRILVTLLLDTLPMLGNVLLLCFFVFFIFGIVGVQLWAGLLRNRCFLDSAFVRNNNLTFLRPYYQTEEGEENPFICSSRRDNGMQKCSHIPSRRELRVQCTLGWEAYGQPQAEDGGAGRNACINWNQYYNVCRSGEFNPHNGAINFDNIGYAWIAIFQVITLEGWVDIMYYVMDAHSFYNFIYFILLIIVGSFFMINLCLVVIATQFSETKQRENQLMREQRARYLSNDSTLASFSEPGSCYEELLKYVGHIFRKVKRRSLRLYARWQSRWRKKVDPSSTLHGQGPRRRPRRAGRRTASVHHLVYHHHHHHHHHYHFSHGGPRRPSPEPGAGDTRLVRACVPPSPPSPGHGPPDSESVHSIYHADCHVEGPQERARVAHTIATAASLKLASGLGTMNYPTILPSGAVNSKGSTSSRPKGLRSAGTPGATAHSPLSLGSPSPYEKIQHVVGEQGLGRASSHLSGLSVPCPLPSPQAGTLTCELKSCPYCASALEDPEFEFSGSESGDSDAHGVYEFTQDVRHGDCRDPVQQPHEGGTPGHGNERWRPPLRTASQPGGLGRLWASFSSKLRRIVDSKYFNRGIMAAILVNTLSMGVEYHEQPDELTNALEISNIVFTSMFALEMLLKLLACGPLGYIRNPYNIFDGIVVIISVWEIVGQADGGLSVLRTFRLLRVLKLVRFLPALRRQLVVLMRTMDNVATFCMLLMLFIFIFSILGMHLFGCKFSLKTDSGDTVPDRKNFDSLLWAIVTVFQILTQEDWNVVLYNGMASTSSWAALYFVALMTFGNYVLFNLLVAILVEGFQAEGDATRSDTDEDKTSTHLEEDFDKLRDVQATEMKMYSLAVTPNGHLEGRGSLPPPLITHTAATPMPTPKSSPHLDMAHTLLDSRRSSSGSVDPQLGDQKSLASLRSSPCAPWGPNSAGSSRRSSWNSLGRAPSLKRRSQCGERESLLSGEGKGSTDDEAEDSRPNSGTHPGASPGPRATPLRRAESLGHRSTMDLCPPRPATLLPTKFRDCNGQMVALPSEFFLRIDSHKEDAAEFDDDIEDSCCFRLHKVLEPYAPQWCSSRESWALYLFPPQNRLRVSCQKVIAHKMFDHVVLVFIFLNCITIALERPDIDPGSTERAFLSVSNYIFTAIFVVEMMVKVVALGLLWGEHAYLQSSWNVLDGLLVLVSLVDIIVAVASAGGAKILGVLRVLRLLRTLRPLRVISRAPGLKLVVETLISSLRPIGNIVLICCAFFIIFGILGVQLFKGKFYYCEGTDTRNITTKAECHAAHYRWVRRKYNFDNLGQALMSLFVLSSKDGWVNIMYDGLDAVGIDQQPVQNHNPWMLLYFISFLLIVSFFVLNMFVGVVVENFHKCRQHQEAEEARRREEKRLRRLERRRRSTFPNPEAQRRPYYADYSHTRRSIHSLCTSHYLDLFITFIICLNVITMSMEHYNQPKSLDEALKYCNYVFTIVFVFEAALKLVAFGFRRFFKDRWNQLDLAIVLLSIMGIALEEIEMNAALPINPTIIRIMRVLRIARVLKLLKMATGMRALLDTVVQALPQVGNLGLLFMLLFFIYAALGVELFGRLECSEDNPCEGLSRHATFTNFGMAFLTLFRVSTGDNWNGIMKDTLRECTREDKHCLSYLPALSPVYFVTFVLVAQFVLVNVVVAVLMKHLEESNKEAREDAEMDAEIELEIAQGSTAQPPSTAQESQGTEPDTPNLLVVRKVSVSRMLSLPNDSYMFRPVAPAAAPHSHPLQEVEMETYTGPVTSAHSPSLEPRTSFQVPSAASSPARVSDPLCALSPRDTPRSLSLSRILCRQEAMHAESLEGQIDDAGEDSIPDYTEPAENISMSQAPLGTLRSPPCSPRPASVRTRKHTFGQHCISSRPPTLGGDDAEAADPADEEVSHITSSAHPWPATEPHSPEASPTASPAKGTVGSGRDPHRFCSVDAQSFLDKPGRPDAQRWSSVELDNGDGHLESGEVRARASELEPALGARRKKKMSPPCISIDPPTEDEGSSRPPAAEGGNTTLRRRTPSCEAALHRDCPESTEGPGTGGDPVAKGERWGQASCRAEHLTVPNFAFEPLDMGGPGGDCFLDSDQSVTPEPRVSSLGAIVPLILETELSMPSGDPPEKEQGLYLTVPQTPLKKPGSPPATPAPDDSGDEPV
UniProt Q5SUF7: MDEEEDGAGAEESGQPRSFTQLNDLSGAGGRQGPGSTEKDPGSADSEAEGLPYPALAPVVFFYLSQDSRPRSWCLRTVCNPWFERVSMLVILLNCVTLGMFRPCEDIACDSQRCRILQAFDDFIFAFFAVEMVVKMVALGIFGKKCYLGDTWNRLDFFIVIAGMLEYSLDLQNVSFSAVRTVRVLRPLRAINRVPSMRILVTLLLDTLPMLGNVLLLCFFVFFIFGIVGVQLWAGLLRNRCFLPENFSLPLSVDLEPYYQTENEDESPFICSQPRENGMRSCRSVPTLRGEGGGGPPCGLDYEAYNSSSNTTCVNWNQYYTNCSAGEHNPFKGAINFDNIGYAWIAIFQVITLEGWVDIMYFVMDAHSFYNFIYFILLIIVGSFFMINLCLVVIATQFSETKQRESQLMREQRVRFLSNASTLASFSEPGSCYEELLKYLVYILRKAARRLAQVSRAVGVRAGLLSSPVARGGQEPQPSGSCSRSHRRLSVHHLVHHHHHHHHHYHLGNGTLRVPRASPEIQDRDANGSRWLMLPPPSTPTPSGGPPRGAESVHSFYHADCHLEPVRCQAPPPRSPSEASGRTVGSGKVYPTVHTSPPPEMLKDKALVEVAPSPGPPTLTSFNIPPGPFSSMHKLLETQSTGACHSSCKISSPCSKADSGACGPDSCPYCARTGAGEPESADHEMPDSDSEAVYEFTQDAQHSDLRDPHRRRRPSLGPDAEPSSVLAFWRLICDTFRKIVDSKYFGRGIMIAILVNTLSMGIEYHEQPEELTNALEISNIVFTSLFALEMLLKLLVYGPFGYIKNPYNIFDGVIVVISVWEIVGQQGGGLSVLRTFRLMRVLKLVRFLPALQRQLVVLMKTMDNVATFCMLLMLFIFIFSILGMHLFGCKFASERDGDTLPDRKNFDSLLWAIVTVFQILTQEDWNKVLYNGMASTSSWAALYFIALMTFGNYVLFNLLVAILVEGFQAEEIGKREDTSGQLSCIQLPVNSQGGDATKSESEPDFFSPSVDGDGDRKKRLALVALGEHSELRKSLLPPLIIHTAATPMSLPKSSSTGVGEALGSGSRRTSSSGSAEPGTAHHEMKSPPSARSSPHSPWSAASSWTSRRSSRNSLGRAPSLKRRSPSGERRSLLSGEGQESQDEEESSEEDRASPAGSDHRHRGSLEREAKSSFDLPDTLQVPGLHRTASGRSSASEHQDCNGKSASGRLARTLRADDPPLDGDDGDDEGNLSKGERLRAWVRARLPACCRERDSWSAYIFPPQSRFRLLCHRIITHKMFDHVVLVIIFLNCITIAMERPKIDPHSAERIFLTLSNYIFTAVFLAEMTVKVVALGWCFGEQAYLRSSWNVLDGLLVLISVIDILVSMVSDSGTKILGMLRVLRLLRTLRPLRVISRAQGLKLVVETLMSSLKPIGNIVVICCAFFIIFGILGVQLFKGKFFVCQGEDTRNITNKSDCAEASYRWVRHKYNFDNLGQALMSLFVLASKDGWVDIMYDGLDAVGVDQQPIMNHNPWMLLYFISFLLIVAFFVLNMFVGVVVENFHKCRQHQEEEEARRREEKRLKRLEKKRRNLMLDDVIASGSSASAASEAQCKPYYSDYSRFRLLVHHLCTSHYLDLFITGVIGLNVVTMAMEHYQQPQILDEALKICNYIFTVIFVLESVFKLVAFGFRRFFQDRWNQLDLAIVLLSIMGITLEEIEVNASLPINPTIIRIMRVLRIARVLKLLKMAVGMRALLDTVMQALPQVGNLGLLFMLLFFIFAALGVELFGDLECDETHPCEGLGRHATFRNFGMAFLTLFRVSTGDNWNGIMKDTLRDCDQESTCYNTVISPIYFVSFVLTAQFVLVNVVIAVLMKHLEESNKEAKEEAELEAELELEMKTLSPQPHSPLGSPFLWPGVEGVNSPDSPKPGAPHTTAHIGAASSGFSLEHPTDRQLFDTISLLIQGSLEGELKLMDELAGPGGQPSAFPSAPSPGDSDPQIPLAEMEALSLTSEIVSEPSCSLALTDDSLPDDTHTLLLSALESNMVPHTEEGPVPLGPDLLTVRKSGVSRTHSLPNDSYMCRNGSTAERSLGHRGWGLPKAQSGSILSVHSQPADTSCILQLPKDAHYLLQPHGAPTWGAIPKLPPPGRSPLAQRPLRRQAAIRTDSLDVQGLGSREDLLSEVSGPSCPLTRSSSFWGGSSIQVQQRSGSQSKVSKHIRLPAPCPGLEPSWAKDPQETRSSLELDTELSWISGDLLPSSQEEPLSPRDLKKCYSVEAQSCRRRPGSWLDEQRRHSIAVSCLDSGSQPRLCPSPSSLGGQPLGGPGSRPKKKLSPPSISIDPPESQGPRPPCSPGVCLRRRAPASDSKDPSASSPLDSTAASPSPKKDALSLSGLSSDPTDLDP
UniProt Q61056: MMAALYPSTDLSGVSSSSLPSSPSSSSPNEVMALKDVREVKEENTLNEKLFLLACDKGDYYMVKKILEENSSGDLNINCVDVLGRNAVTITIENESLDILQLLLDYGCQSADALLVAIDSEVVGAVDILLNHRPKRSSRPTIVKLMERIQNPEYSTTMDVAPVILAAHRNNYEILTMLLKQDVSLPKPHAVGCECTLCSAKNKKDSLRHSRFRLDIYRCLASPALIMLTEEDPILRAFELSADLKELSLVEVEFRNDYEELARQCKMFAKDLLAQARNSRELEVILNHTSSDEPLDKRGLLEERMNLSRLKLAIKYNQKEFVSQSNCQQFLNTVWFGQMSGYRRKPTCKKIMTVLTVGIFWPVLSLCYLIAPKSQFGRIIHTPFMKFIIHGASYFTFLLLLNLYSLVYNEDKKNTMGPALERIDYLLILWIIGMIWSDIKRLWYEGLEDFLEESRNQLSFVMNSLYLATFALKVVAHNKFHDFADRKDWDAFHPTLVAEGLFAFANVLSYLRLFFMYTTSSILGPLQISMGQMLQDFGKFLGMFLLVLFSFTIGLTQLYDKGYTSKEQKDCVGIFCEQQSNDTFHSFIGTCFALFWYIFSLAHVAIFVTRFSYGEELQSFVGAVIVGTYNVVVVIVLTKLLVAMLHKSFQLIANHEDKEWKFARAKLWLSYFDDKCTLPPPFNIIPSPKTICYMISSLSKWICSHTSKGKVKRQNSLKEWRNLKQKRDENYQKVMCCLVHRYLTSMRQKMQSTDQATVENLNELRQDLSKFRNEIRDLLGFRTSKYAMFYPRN

Key:
Assay in all cases: co-IP
[1] = target: TRPC5 channel (Transient Receptor Potential Cation 5) (mouse (endogenous in mouse brain and hypothalamus)) (UniProt Q9QX29)
[2] = target: CaV3.2 channel (T-type calcium channel α1H) (mouse (endogenous in mouse brain and hypothalamus)) (UniProt O88427)
[3] = target: CaV3.1 channel (T-type calcium channel α1G) (mouse (endogenous in mouse brain and hypothalamus)) (UniProt Q5SUF7)

| binding [1] | binding [2] | binding [3] | Substance |
| --- | --- | --- | --- |
| binds | – | – | CaV3.1 channel (T-type calcium channel α1G) (from UniProt Q5SUF7 1-2381) |
| – | binds | binds | TRPC5 channel (Transient Receptor Potential Cation 5) (from UniProt Q9QX29 1-975) |
| binds | binds | binds | TRPC1 channel (from UniProt Q61056 1-793) |
| binds | – | – | CaV3.2 channel (T-type calcium channel α1H) (from UniProt O88427 1-2365) |
